Results reported in paper PMC5009318, “Structural insights into the IgE mediated responses induced by the allergens Hev b 8 and Zea m 12 in their dimeric forms” (Scientific Reports, 2016).
Results are given in words; binding and its absence hold for the method and conditions named.

Biological target: recombinant profilin allergen rHev b 8 (isoform Hev b 8.0102) from Hevea brasiliensis (Hevea brasiliensis) (UniProt Q9STB6)
Experiment: SDS-PAGE under reducing conditions; same samples under reducing conditions; both purified

B1: recombinant profilin allergen rHev b 8 (isoform Hev b 8.0102) from Hevea brasiliensis (natural protein)
chain: MSWQAYVDDHLMCEIEGNHLSAAAIIGQDGSVWAQSANFPQFKSEEITGIMSDFHEPGTLAPTGLYIGGTKYMVIQGEPGAVIRGKKGPGGVTVKKTNQALIIGIYDEPMTPGQCNMIVERLGDYLIDQGY
notes: Cloned in pET28c; The dimer is held by a disulfide bridge between Cys13 of both chains; also called monomeric rHev b 8; dimeric rHev b 8; source: E. coli Rosetta (DE3), purified (Ni-NTA, enterokinase cleavage, mono Q anion exchange; oligomers separated by SEC)
binding: no binding (condition: reducing conditions in SDS-PAGE)
